Measured values published in patent US20250282732A1, “NOVEL ESTERS OF 1,2,3,4,4a,5,6,7,8,9,10,10a-DODECAHYDROBENZO[G]QUINOLIN-6-OL COMPOUNDS AND USES THEREOF” (INTEGRATIVE RESEARCH LABORATORIES SWEDEN AB, priority 2022, published 2025).
Some entries share one result that the patent states for a list of compounds.

Tested on: non-pre-treated Sprague-Dawley rats
Assay: Spontaneous locomotor activity (distance travelled)
Format: in vivo, rat
Details: 0.3 μmol/kg; recording session 180 min
Method: Behavioral activity was measured using eight Digiscan activity monitors (RXYZM (16) TAO, Omnitech Electronics, Columbus, OH, USA), connected to an Omnitech Digiscan analyzer and an Apple Macintosh computer equipped with a digital interface board (NB DIO-24, National Instruments, USA). Each activity monitor consisted of a quadratic metal frame (W×L=40 cm×40 cm) equipped with photo beam sensors. During measurements of behavioral activity, a rat was put in a transparent acrylic cage (W×L×H, 40×40×30 cm) which in turn was placed in the activity monitor. Each activity monitor was equipped with three rows of infrared photo beam sensors, each row consisting of 16 sensors. […] Behavioral data from each activity monitor, representing the position (horizontal center of gravity and vertical activity) of the animal at each time, were recorded at a sampling frequency of 25 Hz and collected using a custom written LABView™ application. The data from each recording session were stored and analyzed with respect to distance traveled. […]
(§1) The animals were placed in the motility meters immediately after administration and locomotor activity was recorded for 180 minutes. […]
as §1

Compound: CCCN1CCC[C@@H]2CC3=C(CCCC3OC(C)=O)C[C@H]21.O=C(O)C(=O)O (stereo partly drawn) [Example 5, (4aR,10aR)-1-propyl-1,2,3,4,4a,5,6,7,8,9,10,10a-dodecahydrobenzo[g]quinolin-6-yl acetate]
- desired effect (hyperactivity) lasting for: at least 180 min
